The other results are listed elsewhere or left out.
Tests used:
Experiment in all cases: log2 fold change, soluble protein after heating vs DMSO (PISA); higher = thermal stabilisation; K562 cells, 10 uM, 30 min; active = over 0.2 and 3.5 SD of the protein, either way, in both replicates (recomputed)
[1] = compound: C1=CC=C(C=C1)[C@H](COC2=CC3=C(C=C2)NC(=O)N3)NC(=O)C4=CC=CN(C4=O)CC5=CC(=C(C=C5)F)F
Procedure, shortened: (§1)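 K562 cells at 2×10^6 cells/mL were treated for 30 min with 10 μM compound, and aliquots were heated for 3 min over 48°C-58°C before pooling. Extraction used PBS with 0.5% NP-40 at 4°C, and soluble protein was the supernatant after 21,000xg for 90 min, measured by TMTpro 16plex LC-MS/MS with channel sums equalised. Thermal stability values, relative to control samples and from duplicates, are log2 fold changes.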

Protein sequences, listed by entry. Tags and fused reporters are not part of them. Lines headed by an entry give the natural chain unless they say otherwise; changes in a name come on top.
UniProt Q96P47: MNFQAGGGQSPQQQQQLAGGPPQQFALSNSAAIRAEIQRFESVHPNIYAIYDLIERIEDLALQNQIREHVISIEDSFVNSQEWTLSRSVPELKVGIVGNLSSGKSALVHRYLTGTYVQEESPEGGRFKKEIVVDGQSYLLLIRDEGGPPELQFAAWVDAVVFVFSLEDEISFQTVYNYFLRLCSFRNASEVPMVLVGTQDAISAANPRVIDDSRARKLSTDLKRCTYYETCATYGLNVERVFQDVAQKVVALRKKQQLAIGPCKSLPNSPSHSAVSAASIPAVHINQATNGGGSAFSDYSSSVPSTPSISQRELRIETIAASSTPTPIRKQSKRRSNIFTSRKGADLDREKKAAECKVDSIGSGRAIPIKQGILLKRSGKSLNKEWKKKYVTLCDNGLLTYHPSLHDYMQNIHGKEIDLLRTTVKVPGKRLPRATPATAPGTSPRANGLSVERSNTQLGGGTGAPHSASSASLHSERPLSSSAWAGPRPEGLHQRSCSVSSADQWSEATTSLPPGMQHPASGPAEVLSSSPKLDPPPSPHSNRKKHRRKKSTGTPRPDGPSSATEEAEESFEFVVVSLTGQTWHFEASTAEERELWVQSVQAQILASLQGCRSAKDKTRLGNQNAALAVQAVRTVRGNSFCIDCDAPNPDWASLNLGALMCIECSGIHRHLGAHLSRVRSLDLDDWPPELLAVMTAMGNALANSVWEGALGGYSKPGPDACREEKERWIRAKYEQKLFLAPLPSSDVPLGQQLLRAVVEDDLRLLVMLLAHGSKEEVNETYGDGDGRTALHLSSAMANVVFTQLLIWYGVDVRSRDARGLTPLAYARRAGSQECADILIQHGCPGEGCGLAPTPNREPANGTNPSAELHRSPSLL
UniProt Q63HM1: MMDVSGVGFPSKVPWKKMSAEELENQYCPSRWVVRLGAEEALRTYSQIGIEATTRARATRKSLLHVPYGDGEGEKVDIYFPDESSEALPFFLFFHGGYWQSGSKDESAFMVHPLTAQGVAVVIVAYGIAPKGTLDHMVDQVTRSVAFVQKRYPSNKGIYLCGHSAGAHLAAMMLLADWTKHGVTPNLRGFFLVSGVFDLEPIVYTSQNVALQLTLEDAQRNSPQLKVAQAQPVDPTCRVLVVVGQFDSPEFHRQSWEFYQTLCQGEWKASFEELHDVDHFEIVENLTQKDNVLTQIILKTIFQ
UniProt Q96BT7: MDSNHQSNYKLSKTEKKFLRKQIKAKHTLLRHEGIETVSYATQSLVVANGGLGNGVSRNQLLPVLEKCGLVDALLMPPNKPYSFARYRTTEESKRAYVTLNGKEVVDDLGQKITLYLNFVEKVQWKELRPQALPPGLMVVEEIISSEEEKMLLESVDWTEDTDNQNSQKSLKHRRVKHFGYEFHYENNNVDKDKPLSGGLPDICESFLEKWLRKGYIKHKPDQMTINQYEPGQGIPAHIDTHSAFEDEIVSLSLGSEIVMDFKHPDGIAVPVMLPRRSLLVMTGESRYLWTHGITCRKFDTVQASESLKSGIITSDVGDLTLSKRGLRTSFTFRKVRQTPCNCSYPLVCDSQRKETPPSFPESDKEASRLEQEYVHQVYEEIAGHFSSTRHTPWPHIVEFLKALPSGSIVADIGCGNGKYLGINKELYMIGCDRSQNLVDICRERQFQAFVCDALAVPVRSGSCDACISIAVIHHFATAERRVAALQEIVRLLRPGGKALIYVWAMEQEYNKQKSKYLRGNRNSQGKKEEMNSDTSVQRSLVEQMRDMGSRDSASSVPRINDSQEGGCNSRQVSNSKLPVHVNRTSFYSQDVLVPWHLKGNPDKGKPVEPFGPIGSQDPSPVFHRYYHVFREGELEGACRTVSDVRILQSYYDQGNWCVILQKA
UniProt Q9BT30: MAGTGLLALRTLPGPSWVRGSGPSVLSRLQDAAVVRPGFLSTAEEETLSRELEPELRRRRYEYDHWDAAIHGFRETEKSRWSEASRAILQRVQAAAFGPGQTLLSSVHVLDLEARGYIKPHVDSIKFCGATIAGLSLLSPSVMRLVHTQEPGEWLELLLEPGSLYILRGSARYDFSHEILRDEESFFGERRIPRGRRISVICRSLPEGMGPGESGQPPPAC
UniProt P04075: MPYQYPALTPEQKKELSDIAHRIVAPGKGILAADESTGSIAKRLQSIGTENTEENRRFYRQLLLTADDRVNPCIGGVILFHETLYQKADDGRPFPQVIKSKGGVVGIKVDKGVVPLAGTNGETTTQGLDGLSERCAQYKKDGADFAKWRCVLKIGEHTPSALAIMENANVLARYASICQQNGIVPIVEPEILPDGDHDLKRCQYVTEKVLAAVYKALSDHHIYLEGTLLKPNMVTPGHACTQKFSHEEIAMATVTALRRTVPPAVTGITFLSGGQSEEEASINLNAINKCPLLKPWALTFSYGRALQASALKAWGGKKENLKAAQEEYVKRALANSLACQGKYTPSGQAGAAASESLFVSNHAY
UniProt O60266: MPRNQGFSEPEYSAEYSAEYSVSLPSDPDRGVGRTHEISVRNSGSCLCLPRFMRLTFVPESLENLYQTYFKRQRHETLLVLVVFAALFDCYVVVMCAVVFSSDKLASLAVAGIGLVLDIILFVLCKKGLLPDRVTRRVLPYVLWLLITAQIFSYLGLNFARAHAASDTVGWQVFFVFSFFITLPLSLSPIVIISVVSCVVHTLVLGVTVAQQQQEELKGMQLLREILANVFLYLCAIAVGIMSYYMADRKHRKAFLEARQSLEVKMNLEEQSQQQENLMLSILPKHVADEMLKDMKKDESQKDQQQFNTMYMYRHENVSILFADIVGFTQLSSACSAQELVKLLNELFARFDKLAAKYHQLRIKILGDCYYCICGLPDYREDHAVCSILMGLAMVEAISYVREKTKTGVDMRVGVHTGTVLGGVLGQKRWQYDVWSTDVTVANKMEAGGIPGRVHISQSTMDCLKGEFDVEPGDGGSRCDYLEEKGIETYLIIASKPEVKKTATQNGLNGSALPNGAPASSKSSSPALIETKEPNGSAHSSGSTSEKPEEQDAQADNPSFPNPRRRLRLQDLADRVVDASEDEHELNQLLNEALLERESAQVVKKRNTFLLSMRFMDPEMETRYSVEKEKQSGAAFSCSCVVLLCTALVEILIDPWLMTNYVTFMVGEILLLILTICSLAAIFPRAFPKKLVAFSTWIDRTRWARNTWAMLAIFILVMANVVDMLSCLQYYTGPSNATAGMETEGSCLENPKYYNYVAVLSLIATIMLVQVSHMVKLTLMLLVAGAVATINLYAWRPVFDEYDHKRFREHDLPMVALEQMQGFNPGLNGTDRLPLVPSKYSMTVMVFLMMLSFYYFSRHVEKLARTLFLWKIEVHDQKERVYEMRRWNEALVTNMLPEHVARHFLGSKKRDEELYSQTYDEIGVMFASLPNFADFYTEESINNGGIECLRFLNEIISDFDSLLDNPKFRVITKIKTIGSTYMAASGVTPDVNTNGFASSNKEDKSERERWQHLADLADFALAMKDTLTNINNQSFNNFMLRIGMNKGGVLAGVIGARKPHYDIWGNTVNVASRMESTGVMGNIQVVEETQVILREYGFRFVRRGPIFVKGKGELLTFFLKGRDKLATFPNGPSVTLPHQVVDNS
UniProt Q9NRZ5: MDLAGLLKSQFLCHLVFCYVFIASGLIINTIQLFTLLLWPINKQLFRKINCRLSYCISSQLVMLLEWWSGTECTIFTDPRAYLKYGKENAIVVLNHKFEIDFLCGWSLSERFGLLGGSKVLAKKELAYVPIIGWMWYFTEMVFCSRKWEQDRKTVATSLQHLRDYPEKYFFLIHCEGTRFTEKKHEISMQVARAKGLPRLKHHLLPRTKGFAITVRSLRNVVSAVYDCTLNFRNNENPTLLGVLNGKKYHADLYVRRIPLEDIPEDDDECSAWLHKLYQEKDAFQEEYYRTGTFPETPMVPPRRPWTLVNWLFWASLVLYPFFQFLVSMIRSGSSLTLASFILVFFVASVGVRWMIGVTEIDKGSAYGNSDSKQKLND
UniProt Q9Y303: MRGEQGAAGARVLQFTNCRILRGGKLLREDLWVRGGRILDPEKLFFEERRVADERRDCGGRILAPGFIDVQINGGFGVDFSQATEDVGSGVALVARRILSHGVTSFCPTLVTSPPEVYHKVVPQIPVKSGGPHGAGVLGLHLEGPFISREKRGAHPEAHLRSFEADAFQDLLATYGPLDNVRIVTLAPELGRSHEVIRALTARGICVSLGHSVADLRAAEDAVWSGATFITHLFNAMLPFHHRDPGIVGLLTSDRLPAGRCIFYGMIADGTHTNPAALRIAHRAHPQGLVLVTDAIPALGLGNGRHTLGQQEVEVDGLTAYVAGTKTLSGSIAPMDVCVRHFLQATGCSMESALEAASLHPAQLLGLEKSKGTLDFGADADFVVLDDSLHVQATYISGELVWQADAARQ
UniProt Q6QNK2: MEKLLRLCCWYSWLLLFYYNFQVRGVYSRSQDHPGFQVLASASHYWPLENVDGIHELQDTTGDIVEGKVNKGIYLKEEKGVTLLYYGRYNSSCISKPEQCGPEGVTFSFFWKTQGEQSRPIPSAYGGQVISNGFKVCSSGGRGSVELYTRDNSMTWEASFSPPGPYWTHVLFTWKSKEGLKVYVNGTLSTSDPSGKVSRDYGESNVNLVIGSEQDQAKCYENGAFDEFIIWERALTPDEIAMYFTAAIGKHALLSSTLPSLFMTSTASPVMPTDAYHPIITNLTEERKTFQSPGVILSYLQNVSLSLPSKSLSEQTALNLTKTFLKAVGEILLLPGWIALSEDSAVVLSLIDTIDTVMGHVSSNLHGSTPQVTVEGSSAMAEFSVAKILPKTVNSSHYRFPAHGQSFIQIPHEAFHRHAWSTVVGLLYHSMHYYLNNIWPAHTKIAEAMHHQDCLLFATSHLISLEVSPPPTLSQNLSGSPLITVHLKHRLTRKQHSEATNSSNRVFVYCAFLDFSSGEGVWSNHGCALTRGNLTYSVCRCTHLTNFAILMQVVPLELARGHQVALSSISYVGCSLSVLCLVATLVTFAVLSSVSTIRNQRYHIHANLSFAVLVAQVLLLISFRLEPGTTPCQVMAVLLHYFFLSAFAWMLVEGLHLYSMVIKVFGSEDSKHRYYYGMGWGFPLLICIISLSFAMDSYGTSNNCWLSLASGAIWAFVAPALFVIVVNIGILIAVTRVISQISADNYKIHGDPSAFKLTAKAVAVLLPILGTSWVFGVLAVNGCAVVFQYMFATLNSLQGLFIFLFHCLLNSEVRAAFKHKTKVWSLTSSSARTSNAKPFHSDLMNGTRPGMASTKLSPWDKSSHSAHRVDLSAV
UniProt Q96A54: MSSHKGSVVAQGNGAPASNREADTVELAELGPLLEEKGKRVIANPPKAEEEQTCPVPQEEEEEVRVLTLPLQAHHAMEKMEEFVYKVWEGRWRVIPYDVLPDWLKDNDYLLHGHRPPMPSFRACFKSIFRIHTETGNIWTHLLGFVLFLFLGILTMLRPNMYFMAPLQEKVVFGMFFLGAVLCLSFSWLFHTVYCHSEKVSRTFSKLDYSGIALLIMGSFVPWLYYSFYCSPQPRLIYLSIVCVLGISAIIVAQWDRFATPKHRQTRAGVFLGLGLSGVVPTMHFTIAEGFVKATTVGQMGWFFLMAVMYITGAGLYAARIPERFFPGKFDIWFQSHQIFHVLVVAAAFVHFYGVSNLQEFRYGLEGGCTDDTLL
UniProt Q6RW13: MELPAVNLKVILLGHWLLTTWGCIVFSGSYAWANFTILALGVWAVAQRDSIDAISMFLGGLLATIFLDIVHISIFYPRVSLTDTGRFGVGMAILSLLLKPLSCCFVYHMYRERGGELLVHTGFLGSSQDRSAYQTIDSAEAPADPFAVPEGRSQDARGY
UniProt Q9BQI0: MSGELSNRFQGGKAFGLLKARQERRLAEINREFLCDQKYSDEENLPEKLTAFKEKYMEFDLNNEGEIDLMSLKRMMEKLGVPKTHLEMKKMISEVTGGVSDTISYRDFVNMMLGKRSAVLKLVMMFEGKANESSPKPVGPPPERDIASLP

[2] = compound: CC1=C(SC2=C1C(=N[C@H](C3=NN=C(N32)C)CC(=O)N)C4=CC=C(C=C4)Cl)C
Procedure, shortened: as §1

[3] = compound: Cc1sc2c(c1C)C(c1ccc(Cl)cc1)=N[C@@H](CC(=O)OC(C)(C)C)c1nnc(C)n1-2
Procedure, shortened: as §1

[4] = compound: c1ccc([C@@H]2C[C@H]2NC2CCNCC2)cc1
Procedure, shortened: as §1

[5] = compound: CC1=C2C(=CC=C1)N=C(N(C2=O)C3=CC=CC=C3C)CN4C=NC5=C(N=CN=C54)N
Procedure, shortened: as §1

Row | Target | log2 fold change [1] | log2 fold change [2] | log2 fold change [3] | log2 fold change [4] | log2 fold change [5]
1 | AGAP3 isoform 4 (UniProt Q96P47) | inactive: -0.08 | inactive: -0.023 | inactive: -0.006 | inactive: 0.05 | –
2 | AFMID isoform 2 (UniProt Q63HM1) | – | – | – | – | inactive: -0.071
3 | ALKBH8 isoform 4 (UniProt Q96BT7) | inactive: -0.052 | inactive: 0.161 | – | inactive: -0.34 | –
4 | ALKBH7 (UniProt Q9BT30) | – | inactive: 0.124 | – | inactive: 0.092 | –
5 | ALDOA (UniProt P04075) | inactive: 0.08 | – | inactive: -0.179 | – | inactive: 0.028
6 | AKAP9 isoform 6 (UniProt Q99996) | – | inactive: -0.276 | – | inactive: -0.174 | –
7 | ADCY3 (UniProt O60266) | – | inactive: 0.083 | inactive: -0.094 | inactive: 0.088 | inactive: 0.187
8 | AGPAT4 (UniProt Q9NRZ5) | inactive: -0.001 | inactive: 0.047 | inactive: -0.065 | inactive: -0.003 | –
9 | AMDHD2 (UniProt Q9Y303) | – | inactive: 0.053 | inactive: 0.151 | inactive: 0.019 | inactive: -0.023
10 | ADGRD1 isoform 4 (UniProt Q6QNK2) | – | inactive: -0.048 | inactive: 0.028 | inactive: 0.026 | inactive: 0.216
11 | ADIPOR1 (UniProt Q96A54) | inactive: 0.098 | – | – | – | inactive: 0.04
12 | AGTRAP isoform 2 (UniProt Q6RW13) | – | – | inactive: 0.077 | – | –
13 | AIF1L isoform 2 (UniProt Q9BQI0) | inactive: -0.093 | inactive: -0.099 | – | inactive: -0.05 | inactive: -0.23
